{
  "source": "the supplement of paper PMC8728848",
  "binders": {"B1": {"name": "EULS2 M3 (Oryza sativa) (protein)", "chain": "MVYCRANPNYAMTARNGAVVLAPANPKDEYQHWIKDMRWSTSIKDEEGYPAFALVNKATGQAIKHSLGQSHPVRLVPYNPEVMDESVLWTESRDVGNGFRCIRMVNNIYLNFDAFHGDKYHGGVRDGTDIVLWKLCEGDSLRWKIQPYYILEQKLISEEDLNSAVDHHHHHH"}},
  "test_in_all_cases": "glycan array binding signal (z-score within array); higher = stronger binding",
  "settings_in_all_cases": "glycan notation: IUPAC condensed, linker removed",
  "key": {"Gal(b1-2)Gal": {"target": "Gal(b1-2)Gal", "in_short": "(§1)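 Glycan array data were curated from 3228 arrays in the Consortium for Functional Glycomics database and kept only where the protein sequence was available. Glycan names were converted to IUPAC-condensed notation, and columns mapping to the same glycan were averaged. The binding signal is a within-array Z-score, averaged across arrays of the same protein sequence at different concentrations or buffers and across linkers. Negative Z-scores can be read as non-binding.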"}, "Gal(b1-3)Gal": {"target": "Gal(b1-3)Gal", "in_short": "as §1"}, "Gal(b1-3)Gal(b1-4)GlcNAc": {"target": "Gal(b1-3)Gal(b1-4)GlcNAc", "in_short": "as §1"}, "Gal(b1-3)GalNAc": {"target": "Gal(b1-3)GalNAc", "in_short": "as §1"}, "[1]": {"target": "Gal(b1-3)GalNAc(a1-3)[Fuc(a1-2)]Gal(b1-4)Glc", "in_short": "as §1"}, "[2]": {"target": "Gal(b1-3)GalNAc(a1-3)[Fuc(a1-2)]Gal(b1-4)GlcNAc", "in_short": "as §1"}, "Gal(b1-3)GalNAc(b1-3)Gal": {"target": "Gal(b1-3)GalNAc(b1-3)Gal", "in_short": "as §1"}, "[3]": {"target": "Gal(b1-3)GalNAc(b1-3)Gal(a1-4)Gal(b1-4)Glc", "in_short": "as §1"}, "[4]": {"target": "Gal(b1-3)GalNAc(b1-4)Gal(b1-4)Glc", "in_short": "as §1"}, "[5]": {"target": "Gal(b1-3)GalNAc(b1-4)[Neu5Ac(a2-3)]Gal(b1-4)Glc", "in_short": "as §1"}, "Gal(b1-3)GlcNAc": {"target": "Gal(b1-3)GlcNAc", "in_short": "as §1"}, "[6]": {"target": "Gal(b1-3)GlcNAc(a1-3)Gal(b1-4)GlcNAc", "in_short": "as §1"}, "[7]": {"target": "Gal(b1-3)GlcNAc(a1-6)Gal(b1-4)GlcNAc", "in_short": "as §1"}, "Gal(b1-3)GlcNAc(b1-2)Man": {"target": "Gal(b1-3)GlcNAc(b1-2)Man", "in_short": "as §1"}, "[8]": {"target": "Gal(b1-3)GlcNAc(b1-2)Man(a1-3)[Gal(b1-3)GlcNAc(b1-2)Man(a1-6)]Man(b1-4)GlcNAc(b1-4)GlcNAc", "in_short": "as §1"}, "[9]": {"target": "Gal(b1-3)GlcNAc(b1-2)Man(a1-3)[Gal(b1-3)GlcNAc(b1-2)Man(a1-6)]Man(b1-4)GlcNAc(b1-4)[Fuc(a1-6)]GlcNAc", "in_short": "as §1"}, "[10]": {"target": "Gal(b1-3)GlcNAc(b1-2)Man(a1-3)[GlcNAc(b1-4)][Gal(b1-3)GlcNAc(b1-2)Man(a1-6)]Man(b1-4)GlcNAc(b1-4)GlcNAc", "in_short": "as §1"}, "[11]": {"target": "Gal(b1-3)GlcNAc(b1-2)[Gal(b1-3)GlcNAc(b1-6)]Man(a1-6)[Gal(b1-3)GlcNAc(b1-2)Man(a1-3)]Man(b1-4)GlcNAc(b1-4)GlcNAc", "in_short": "as §1"}, "[12]": {"target": "Gal(b1-3)GlcNAc(b1-3)Gal(b1-3)GlcNAc", "in_short": "as §1"}, "[13]": {"target": "Gal(b1-3)GlcNAc(b1-3)Gal(b1-4)Glc", "in_short": "as §1"}, "[14]": {"target": "Gal(b1-3)GlcNAc(b1-3)Gal(b1-4)GlcNAc", "in_short": "as §1"}, "[15]": {"target": "Gal(b1-3)GlcNAc(b1-3)Gal(b1-4)GlcNAc(b1-2)Man(a1-3)[Gal(b1-3)GlcNAc(b1-3)Gal(b1-4)GlcNAc(b1-2)Man(a1-6)]Man(b1-4)GlcNAc(b1-4)GlcNAc", "in_short": "as §1"}},
  "note": "The list shows a part of the results.",
  "data": [
    {"binder": "B1", "values": [
      {"measurement": "glycan array binding signal (z-score)", "setting": "Gal(b1-2)Gal", "result": -0.24},
      {"measurement": "glycan array binding signal (z-score)", "setting": "Gal(b1-3)Gal", "result": -0.117},
      {"measurement": "glycan array binding signal (z-score)", "setting": "Gal(b1-3)Gal(b1-4)GlcNAc", "result": 0.894},
      {"measurement": "glycan array binding signal (z-score)", "setting": "Gal(b1-3)GalNAc", "result": 0.239},
      {"measurement": "glycan array binding signal (z-score)", "setting": "[1]", "result": -0.255},
      {"measurement": "glycan array binding signal (z-score)", "setting": "[2]", "result": -0.821},
      {"measurement": "glycan array binding signal (z-score)", "setting": "Gal(b1-3)GalNAc(b1-3)Gal", "result": -0.775},
      {"measurement": "glycan array binding signal (z-score)", "setting": "[3]", "result": -0.242},
      {"measurement": "glycan array binding signal (z-score)", "setting": "[4]", "result": -0.382},
      {"measurement": "glycan array binding signal (z-score)", "setting": "[5]", "result": -0.461},
      {"measurement": "glycan array binding signal (z-score)", "setting": "Gal(b1-3)GlcNAc", "result": 0.047},
      {"measurement": "glycan array binding signal (z-score)", "setting": "[6]", "result": 2.02},
      {"measurement": "glycan array binding signal (z-score)", "setting": "[7]", "result": -0.654},
      {"measurement": "glycan array binding signal (z-score)", "setting": "Gal(b1-3)GlcNAc(b1-2)Man", "result": -0.032},
      {"measurement": "glycan array binding signal (z-score)", "setting": "[8]", "result": -0.258},
      {"measurement": "glycan array binding signal (z-score)", "setting": "[9]", "result": -0.658},
      {"measurement": "glycan array binding signal (z-score)", "setting": "[10]", "result": 0.099},
      {"measurement": "glycan array binding signal (z-score)", "setting": "[11]", "result": -0.346},
      {"measurement": "glycan array binding signal (z-score)", "setting": "[12]", "result": -0.4},
      {"measurement": "glycan array binding signal (z-score)", "setting": "[13]", "result": -0.014},
      {"measurement": "glycan array binding signal (z-score)", "setting": "[14]", "result": -0.093},
      {"measurement": "glycan array binding signal (z-score)", "setting": "[15]", "result": 0.43}
    ]}
  ]
}
